# Test results published in the supplement of paper PMC3334620.
# Over roughly 33,000 sequences, “E-score (-0.5 to 0.5)” has its median near -0.0059; the highest 2% begin near 0.26. The list shows a part of the results.
# Molecular target: T1, Cin5 (UniProt P40917)
# T1 sequence: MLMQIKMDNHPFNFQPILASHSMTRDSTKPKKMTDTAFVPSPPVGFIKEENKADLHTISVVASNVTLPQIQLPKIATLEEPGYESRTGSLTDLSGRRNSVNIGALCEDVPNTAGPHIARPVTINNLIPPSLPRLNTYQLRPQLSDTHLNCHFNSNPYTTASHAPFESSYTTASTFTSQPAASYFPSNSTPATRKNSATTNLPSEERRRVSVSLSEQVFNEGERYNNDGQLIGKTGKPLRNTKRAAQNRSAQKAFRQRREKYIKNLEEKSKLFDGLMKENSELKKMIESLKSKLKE
# Assay: PBM E-score (8-mer binding enrichment) (E-score (-0.5 to 0.5)); higher = stronger / more preferred TF binding
# Details: protein concentration: 100 nM; construct: GST-full length
# Procedure, shortened: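 For each ungapped eight-base word taken together with its reverse complement, the Universal PBM Analysis Suite assigned an E-score. Binding data came from GST-tagged yeast transcription factors, applied at about 100-200 nM, on universal all-10-mer Agilent arrays made double-stranded by primer extension. Fluorescent anti-GST marked bound protein, and scans were normalised with masliner.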
row,Sequence,PBM E-score
1,AAAGAGAG,-0.082
2,ACTAGCGC,0.00268
3,CCCGGAAA,0.136
4,ACGACATC,-0.0616
5,CACTACCC,-0.0308
6,ACTGGCGA,-0.139
7,AATGGAAG,0.0673
8,CTGCCGAA,-0.155
9,CCTGGAAG,-0.115
10,ACACCGAG,-0.0675
11,ACTAATCA,0.264
12,CAATTTCG,0.0631
13,AACGTATG,-0.0311
14,ACCACCCG,-0.101
15,TACGGGAA,-0.108
16,AGGAGTTA,0.0637
17,CGGGAGAA,-0.0556
18,CAAGAGGG,-0.182
19,ATGGATGA,0.172
20,AGGGCTAT,-0.157
21,ACCTAGTC,-0.113
22,TCACATCA,0.0712
23,CCTCATGA,0.00293
24,GACCACCC,-0.159
25,TACACGAA,0.255

row,Sequence,PBM E-score
1,ATCCGTTG,0.163
2,CCTATCCA,-0.159
3,ACCTTGAA,-0.0159
4,CCGGAGCC,-0.149
5,GCCTGGCC,-0.259
6,ATACGATA,0.152
7,GACTATGC,0.0131
8,AAGCCTTG,0.062
9,ACGTAAGT,0.25
10,AAATTACG,0.171
11,ACGAACTG,0.00518
12,AGGGATGC,-0.22
13,ACTATGAC,0.074
14,ATTTGTCG,0.186
15,AATGTATC,0.243
16,CGCATGAA,0.116
17,AGAAGAAC,0.0478
18,CACACACA,0.0837
19,AGGCACAT,0.0447
20,AAACATCC,0.0384
21,CTACACGA,0.0325
22,AACATGAG,-0.0568
23,ATGGCAAA,0.0101
24,CTAACTAG,0.0958
25,CCTGCGAA,-0.104

row,Sequence,PBM E-score
1,GCGTCGAA,0.0713
2,CAGCAGAA,-0.0607
3,CCCATCCC,-0.0944
4,TCCCGTCA,-0.00679
5,CTCCACAG,-0.225
6,CGCGATGA,0.199
7,AATCGAGG,0.154
8,AATGTCTG,-0.0309
9,AAAACCGA,0.154
10,AGCAGGGA,-0.105
11,ATTAATCA,0.263
12,CCTGAAGA,-0.0745
13,GAACGACC,-0.243
14,TCATGACA,0.14
15,ACAACCAG,-0.00422
16,ATGTACCC,0.0966
17,AATAGAGT,-0.134
18,CAAGTGAG,-0.036
19,CAATGTAA,0.236
20,TAAAACGA,-0.0549
21,ACATTCCA,0.0993
22,TGCTTCAA,-0.0201
23,ACCTGCCA,-0.169
24,GGCTGCAA,-0.0216
25,ATCCCAGA,-0.229

row,Sequence,PBM E-score
1,CCAAAACA,-0.0204
2,TCTATGAA,-0.00883
3,CCACAGAG,-0.0249
4,CGCGAGAG,-0.016
5,ACGGAAAA,0.161
6,AACCGGAC,-0.0222
7,ATGGTCAC,0.0622
8,TGTGGTAA,0.124
9,AGTCACAT,-0.111
10,TAATCGGA,0.235
11,ATCCTCGA,0.199
12,CTCACAAC,0.132
13,CGTTAAGA,-0.0769
14,AGGCCGCC,-0.209
15,ACCGGCCA,-0.281
16,GAGATCCC,-0.0263
17,AATGGATC,-0.0157
18,ACCTCAGA,-0.154
19,GAGATAAA,0.181
20,ACCTCTCG,-0.116
21,AGGCAGTG,0.141
22,ATGTAGCG,-0.00829
23,ATAGAGGA,-0.201
24,GAGGTCGA,-0.0416
25,GTGGATAA,0.14

# Looked up one by one from above (6):
row,Sequence,PBM E-score
7,ATGGTCAC,0.0622
13,CGTTAAGA,-0.0769
23,ATAGAGGA,-0.201
16,GAGATCCC,-0.0263
5,ACGGAAAA,0.161
11,ATCCTCGA,0.199

# Going on with the list:

row,Sequence,PBM E-score
1,AAACAACG,0.148
2,AGGCCTTG,-0.231
3,CGGTAGAG,-0.132
4,CGGCCCGC,-0.0702
5,AGGCTGGC,-0.274
6,AGAAGCCT,0.0218
7,AAAATATC,0.189
8,AGAATAAC,0.00937
9,CGGTACAA,0.0685
10,AGTCCATG,0.0417
11,GCTGATCC,0.0274
12,ACCTGAAC,-0.121
13,GCCGTCGA,-0.0378
14,TCACCCAA,0.168
15,CAACCACC,-0.0537
16,GGCTCCCA,-0.288
17,ATGGAGGG,-0.207
18,ATTGCCGC,-0.152
19,AAGATGGG,-0.0928
20,CGTTCTAA,0.00436
21,GCAGCTAC,-0.0161
22,AAGATTTA,0.137
23,CGCCTAAA,-0.0895
24,AGGTCAGC,0.0015
25,CCCATGCG,-0.0851

row,Sequence,PBM E-score
1,TATATCAA,0.196
2,AATACTTG,0.103
3,ATAGATCG,-0.0276
4,CACGCAGC,-0.173
5,AGTACGTC,0.105
6,CAAGTTAG,0.0323
7,CTCTAAAA,-0.125
8,GAGTTTCA,-0.0974
9,CCACGCGC,-0.224
10,GCGTGTAC,-0.0736
11,CCGTTGTA,0.095
12,GATTTCGC,0.262
13,AGTGACCC,-0.0299
14,ATTGATCA,0.0329
15,AATATCGC,0.17
16,CGCGATTA,0.263
17,CCCAAACA,0.174
18,CTTTTTCC,0.0268
19,CCGCCACA,-0.0735
20,AGATATAT,0.18
21,CGCCAACC,-0.264
22,GGTAGAAA,-0.111
23,GCATCTCC,-0.0341
24,AGCGAAAC,0.146
25,ACACTCTC,0.117

row,Sequence,PBM E-score
1,AGGGTATC,-0.0168
2,AACACGTC,-0.111
3,AACAACCT,0.0198
4,GGGACCAA,-0.018
5,GCTCAGCC,-0.182
6,AAGGATTC,-0.117
7,CAAACTAA,0.266
8,AGTAGTAG,0.0173
9,CCTTACAA,-0.175
10,AATATACT,0.196
11,ACTTGCCC,-0.0792
12,CTCCGCCA,-0.171
13,GAGGGGCC,-0.223
14,CGATCCCG,-0.00408
15,TATGGTGA,0.0779
16,AGCGTGGC,-0.0859
17,CTGTCGGC,-0.153
18,CCAGCTGC,-0.204
19,GATTTGAC,-0.0405
20,AATCTATG,0.183
21,ATAAGCTC,0.201
22,ACACGCTG,0.0059
